Data as given in article PMC11585782, “The Plastidial Protein Acetyltransferase GNAT1 Forms a Complex With GNAT2, yet Their Interaction Is Dispensable for State Transitions” (Molecular & Cellular Proteomics : MCP, 2024).
Results are given in words; binding and its absence hold for the method and conditions named. Binding seen in cells or lysates may run through a third protein. Some results given as binding are weak or reduced against the parent protein; the word gives no strength. Sequences can lack the tags named with a protein.

Protein sequences, listed by entry. Tags and fused reporters are not part of them. Residues count along the entry.
UniProt Q7X9V3, residues 59-258: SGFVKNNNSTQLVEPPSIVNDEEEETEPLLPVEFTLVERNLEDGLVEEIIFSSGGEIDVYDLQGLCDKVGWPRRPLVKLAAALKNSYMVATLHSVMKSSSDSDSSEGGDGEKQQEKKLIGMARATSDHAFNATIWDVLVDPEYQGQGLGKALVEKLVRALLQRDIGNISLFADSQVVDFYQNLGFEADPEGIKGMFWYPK

Assays:
[1] = biological target: T1, GNAT3-GFP (Arabidopsis thaliana) (UniProt Q940H2); assay: cross-linking; DSSO (12 mM, 1 h at 8 °C) added on the washed GFP-Trap beads of the GNAT-GFP pulldowns from leaf extract; cross-linked peptides identified by MS (XlinkX)
T1 sequence: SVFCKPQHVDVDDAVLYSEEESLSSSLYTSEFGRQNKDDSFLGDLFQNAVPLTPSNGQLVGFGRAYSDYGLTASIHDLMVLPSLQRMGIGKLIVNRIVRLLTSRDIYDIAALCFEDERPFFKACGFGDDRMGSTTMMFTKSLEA

[2] = biological target: T2, GNAT1-GFP (Arabidopsis thaliana) (UniProt Q9C666); assay: as above
T2 sequence: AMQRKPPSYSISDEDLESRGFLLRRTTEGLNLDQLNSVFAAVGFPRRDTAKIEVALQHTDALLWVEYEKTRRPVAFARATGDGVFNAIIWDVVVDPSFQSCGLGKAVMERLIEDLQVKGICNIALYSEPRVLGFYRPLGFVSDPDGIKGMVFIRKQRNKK

binding [1]: binds
binding [2]: binds
Substance: GNAT2 (from UniProt Q7X9V3 59-258) (enzyme)
